Experimental data from PubChem BioAssay AID2685 (National Center for Advancing Translational Sciences (NCATS), 2010).
This is one part of the list. Further columns of the screen follow, without active or inactive calls. Compounds called inactive in the main read-out are mostly missing here. Words in brackets tell the shape of the fitted curve; partial curves, single points and poor fits give uncertain potencies.

Experiment: qHTS Assay for Lipid Storage Modulators in Drosophila S3 Cells;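 as to cell number change: cells counted by Cell Tracker Red CMTPX staining in the red channel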
Details: BODIPY lipid droplet fluorescence, 18-24 h; for cell number change: measured here: cell count max response, cells fed with added oleic acid
Summary of the method: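 Drosophila S3 cells got compounds at several concentrations plus oleic acid (400 uM solution). Laser-scanning cytometry with 488 nm excitation read lipid droplets at 500-530 nm and cells at 575-640 nm. Percent activity was relative to 20 uM Triacsin C.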

[1] = measured here: lipid fluorescence (Fed channel) AC50, cells fed with added oleic acid
[2] = measured here: cell number channel AC50, cells fed with added oleic acid

SMILES: CC(Sc1nnnn1C)C(=O)Nc1ccc(N2CCOCC2)cc1 (centres undefined)
- cell number change: 11.4%

SMILES: COCc1cc(C)nc(SCC(=O)NCC2CCCO2)c1C#N (centres undefined)
- cell number change: -15.9%
- AC50 [1]: 3.26 µM [falling, partial curve]

SMILES: CCN1CC(c2ccccc2)C(c2ccc(Cl)cc2)=N1 (centres undefined)
- cell number change: -30.5%
- AC50 [2]: 18.4 µM [falling, single point]

SMILES: CCOC(=O)C1=CC[C@H]2c3c(c4ccccc4n3C)C[C@H]1N2C
- cell number change: -15.5%
- AC50 [1]: 14.6 µM [falling, partial curve, poor fit]

SMILES: COC(=O)Cc1ccc(NC(=O)c2cccs2)cc1
- cell number change: 3.51%
- AC50 [1]: 29.1 µM [falling, partial curve, poor fit]

SMILES: c1csc(C(c2nnnn2C2CCCC2)N2CCOCC2)c1 (centres undefined)
- cell number change: -6.28%

SMILES: CCCCC(=O)NC(Nc1sc2c(c1C(N)=O)CCCC2)(C(=O)OCC)C(F)(F)F (centres undefined)
- cell number change: -39.7%
- AC50 [2]: 13 µM [falling, partial curve]
- AC50 [1]: 13 µM [falling, partial curve]

SMILES: COCCNS(=O)(=O)c1cc2[nH]c3c(c2cc1C)C(=O)CC(C)(C)C3
- AC50 [1]: 0.58 µM [rising, single point]

SMILES: COc1ccc(C)cc1-n1c(SCC(=O)Nc2cccc(C(=O)O)c2)nc2ccccc2c1=O
- cell number change: -10.9%
- AC50 [1]: 0.326 µM [falling, partial curve, poor fit]

SMILES: COC(=O)C1CCN(S(=O)(=O)CCNC(=O)c2ccc3c(c2)OCO3)CC1
- cell number change: 9.22%
- AC50 [1]: 0.146 µM [rising, full curve, poor fit]

SMILES: CC1=C(C(=O)OCc2ccccc2)C(c2ccc(N3CCOCC3)cc2)NC(=O)N1 (centres undefined)
- cell number change: -15.9%

SMILES: CCc1ccccc1N(C(C)=O)c1nc(CN=C=S)cs1
- cell number change: -44.5%
- AC50 [2]: 29.1 µM [falling, single point]
- AC50 [1]: 0.58 µM [rising, full curve, poor fit]

SMILES: COc1cc2c(C(=O)N3CCN(c4cccc(Cl)c4)CC3)cn(CC(C)C)c(=O)c2cc1OC
- AC50 [2]: 0.82 µM [rising, single point]

SMILES: CCC(=O)Oc1ccc2c(c1)O/C(=C\c1ccco1)C2=O
- cell number change: 27.7%

SMILES: O=C1CC(NS(=O)(=O)c2ccccc2)CN1c1ccc2c(c1)OCCO2 (centres undefined)
- cell number change: -17.2%
- AC50 [2]: 0.146 µM [falling, full curve, poor fit]
- AC50 [1]: 0.651 µM [falling, single point]

SMILES: CN(C)c1cc[n+](CC[n+]2ccc(N(C)C)cc2)cc1
- cell number change: 30%
- AC50 [2]: 1.46 µM [rising, partial curve, poor fit]
- AC50 [1]: 2.91 µM [falling, partial curve, poor fit]

SMILES: COc1ccc(CCNC(=O)C(=O)NCC2CCCN2S(=O)(=O)c2ccc(OC)cc2)cc1 (centres undefined)
- cell number change: 13.7%
- AC50 [1]: 5.17 µM [rising, full curve, poor fit]

SMILES: CCOC(=O)c1c(C)[nH]c(C(=O)N/N=C/c2ccc(Br)cc2)c1C
- cell number change: -19.9%
- AC50 [1]: 5.8 µM [falling, partial curve]

SMILES: CN(CC(=O)N(CCO)Cc1ccccc1)S(=O)(=O)c1ccc2c(c1)c(=O)n(C)c(=O)n2C
- cell number change: -3.54%
- AC50 [1]: 8.2 µM [falling, partial curve]

SMILES: Cc1ccccc1N1CCN(C2CCCN(C(=O)CCC(F)(F)F)C2)CC1 (centres undefined)
- cell number change: 12.4%
- AC50 [2]: 0.00461 µM [rising, full curve, poor fit]

SMILES: COc1ccc(S(=O)(=O)CCC(=O)N2CC(=O)N(CCc3ccccc3)C(=O)C2)cc1
- cell number change: 6.69%
- AC50 [1]: 1.46 µM [falling, full curve]

SMILES: O=C(CN(C(=O)c1csnn1)c1ccc2c(c1)OCCO2)NCc1ccc(F)cc1
- cell number change: -22.9%
- AC50 [1]: 0.206 µM [rising, single point]

SMILES: O=C(NCc1cccs1)C1CCCN1C(=O)Nc1cccc(Cl)c1 (centres undefined)
- cell number change: -27.9%
- AC50 [1]: 20.6 µM [falling, single point]

SMILES: COc1ccc(C(C)C)cc1S(=O)(=O)n1cnc(C)c1
- AC50 [2]: 2.59 µM [rising, partial curve]

SMILES: Cc1cc(=O)n2nc(N3CCC(C(=O)NCc4cccc(Br)c4)CC3)sc2n1
- cell number change: -15.3%
- AC50 [1]: 13 µM [rising, partial curve]

SMILES: NC1(N)OC(CN2C(=O)c3ccccc3C2=O)CS1 (centres undefined)
- cell number change: 17.5%
- AC50 [1]: 0.651 µM [rising, full curve, poor fit]

SMILES: O=C(COC(=O)c1c[nH]c2ccccc12)NC1CCCC1
- cell number change: 16%

SMILES: O=C(c1nn2c(C(F)(F)F)cc(-c3cccs3)nc2c1Br)N1CCCc2ccccc21
- cell number change: 4.93%
- AC50 [1]: 0.291 µM [rising, full curve, poor fit]

SMILES: Cc1ccc(C(=O)OCC(=O)N2CCC(Cc3ccccc3)CC2)cc1N
- cell number change: 11.6%
- AC50 [2]: 7.31 µM [rising, partial curve, poor fit]

SMILES: CCOc1cc(/C=N/NC(N)=O)cc(Br)c1OCc1ccccc1F
- cell number change: -4%

SMILES: Cc1ccc(-c2nnc(Nc3ccc(CC(N)=O)cc3)c3ccccc23)cc1
- cell number change: -8.47%
- AC50 [1]: 20.6 µM [falling, single point]

SMILES: CC(=O)c1cccc(NC(=O)COC(=O)c2cccs2)c1
- cell number change: 41.7%
- AC50 [2]: 29.1 µM [rising, single point]

SMILES: O=[N+]([O-])c1cccc(/C=C/c2ccc3cccc(O)c3n2)c1
- cell number change: -19.7%
- AC50 [1]: 32.6 µM [falling, single point]

SMILES: COc1ccc(S(=O)(=O)N2CCCCCC2)cc1N
- cell number change: 10.9%

SMILES: COC(=O)c1ccc(C2NC(=O)c3ccccc3O2)cc1 (centres undefined)
- cell number change: 16.9%

SMILES: O=C1C=C(NCc2ccccc2)c2ccccc2C1=O
- cell number change: -46.1%
- AC50 [2]: 20.6 µM [falling, single point]
- AC50 [1]: 11.6 µM [falling, partial curve, poor fit]

SMILES: Cc1ccc(-n2cnnn2)c(S(=O)(=O)N2CCOCC2)c1
- cell number change: -12.9%
- AC50 [1]: 5.8 µM [falling, single point]

SMILES: O=C(NCCCN1CCOCC1)c1cc2cc(Br)ccc2oc1=O
- cell number change: 8.04%
- AC50 [1]: 6.51 µM [falling, partial curve, poor fit]

SMILES: c1cnc2ccc(C(c3nnnn3C3CCCC3)N3CCSCC3)cc2c1 (centres undefined)
- cell number change: -2.94%
- AC50 [1]: 0.00517 µM [falling, full curve, poor fit]

SMILES: O=C(CSc1nnc(N2CCCC2)n1-c1ccccc1Cl)N1CCN(c2ccccn2)CC1
- cell number change: 3.2%
- AC50 [1]: 23.1 µM [rising, single point]
